Measured values published in article PMC6332312, “N-Monosubstituted Methoxy-oligo(ethylene glycol) Carbamate Ester Prodrugs of Resveratrol” (Molecules, 2015).

test: Recovery from blood sample treatment (HPLC-UV), ratio to internal standard; design: species or system rat; settings: internal standard 4,4′-dihydroxybiphenyl

Compound | recovery expressed as ratio to the recovery of internal standard
COCCOCCOCCNC(=O)Oc1ccc(/C=C/c2cc(OC(=O)NCCOCCOCCOC)cc(OC(=O)NCCOCCOCCOC)c2)cc1 [Compound 2, (E)-5-(4-(2-(2-(2-Methoxyethoxy)ethoxy)ethyl)carbamate)-1,3-phenylene bis((2-(2-(2-methoxyethoxy)ethoxy)ethyl)carbamate)] | 0.914 ± 0.116
COCCOCCOCCOCCNC(=O)Oc1ccc(/C=C/c2cc(OC(=O)NCCOCCOCCOCCOC)cc(OC(=O)NCCOCCOCCOCCOC)c2)cc1 [Compound 3, (E)-5-(4-(5,8,11-Tetraoxatridecan-13-ylcarbamate)styryl)-1,3-phenylene bis(2,5,8,11-tetraoxatridecan-13-ylcarbamate)] | 0.903 ± 0.104
COCCOCCOCCOCCOCCOCCNC(=O)Oc1ccc(/C=C/c2cc(OC(=O)NCCOCCOCCOCCOCCOCCOC)cc(OC(=O)NCCOCCOCCOCCOCCOCCOC)c2)cc1 [Compound 4, (E)-5-(4-(2,5,8,11,14,17-Hexaoxanonadecan-19-ylcarbamate)styryl)-1,3-phenylene bis(2,5,8,11,14,17-hexaoxanonadecan-19-ylcarbamate)] | 0.967 ± 0.100
